PubChem BioAssay AID1259308 – NCATS, 2017

Purpose: 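Knock-downs that increase output of a recombinant reporter protein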 (primary screen)
Cells: human HEK293 embryonic kidney cells stably expressing firefly luciferase (HEK-CMV-Luc2-Hygro)
Knock-down reagent: single siRNA against human genes, 0.8 pmol siRNA per well
Time to read-out: 72 h
Measurement: 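Reporter luminescence and viable-cell signal on separate replicate plates, given as percent of non-targeting control and median/MAD z-scores, plus per-cell luciferase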
Reading the numbers: total luciferase, z-score and total luciferase, % of control: higher = more reporter protein produced
Hit rule: 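An siRNA counts as active if its total luciferase robust z-score exceeds 3; genes with two or more such siRNAs out of three were retested with fresh siRNAs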
Meaning of the calls: active = raised luciferase; inactive = no rise
The deposit covers about 59,000 reagents; shown is a random part of them. About 1,510 of all reagents (2.6%) were called active. 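Calls use total luciferase alone and ignore viability, so some active siRNAs may act by altering cell number.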 Unmarked entries are inactive. The numbers tell different reagents against one gene apart. Not all columns of the deposit are shown. Reagent sequences are not shown.

no.	gene	reagent no.	total luciferase, z-score	total luciferase, % of control
1	ARL17B	1	-0.823	65.5
2	ARL17B	2	-0.559	70.8
3	ARL17B	3	0.789	97.6
4	EFNB1	1	-0.554	70.9
5	EFNB1	2	0.277	87.4
6	EFNB1	3	-0.843	65.1
7	EPHA1	1	0.698	95.8
8	EPHA1	2	0.00107	81.9
9	EPHA1	3	0.0872	83.6
10	SLC46A3	1	-1.02	61.5
11	SLC46A3	2	0.536	92.6
12	SLC46A3	3	-1.53	51.4
13	DEFB123	1	0.0095	82.1
14	DEFB123	2	-0.427	73.4
15	DEFB123	3	0.057	83
16	NDUFV1	1	-0.359	74.7
17	NDUFV1	2	-0.175	78.4
18	NDUFV1	3	0.0276	82.4
19	ME2	1	-0.595	70.1
20	ME2	2	-1.14	59.3
21	ME2	3	-0.0187	81.5
22	BRWD1	1	0.993	102
23	BRWD1	2	2.83	138
24	BRWD1	3	0.471	91.3
25	FGF23	1	-0.907	63.8
26	FGF23	2	0.425	90.3
27	FGF23	3	-0.739	67.2
28	ABTB2	1	-0.733	67.3
29	ABTB2	2	0.0743	83.4
30	ABTB2	3	0.0454	82.8
31	USP17L9P	1	0.774	97.3
32	USP17L9P	2	3.13 (active)	144
33	USP17L9P	3	-0.107	79.8
34	NKX6-1	1	0.182	85.5
35	NKX6-1	2	-0.0401	81.1
36	NKX6-1	3	-0.0222	81.4
37	RPL32P19	1	0.284	87.5
38	RPL32P19	2	1.65	115
39	RPL32P19	3	1.48	111
